Values quoted from earlier work in patent US9993454B2, “Solid nanoparticle formulation of water insoluble pharmaceutical substances with reduced Ostwald ripening” (Luminus Biosciences, Inc., priority 2006, dated 2018).

CC(=O)O[C@H]1C(=O)[C@@]2(C)[C@H]([C@H](OC(=O)c3ccccc3)[C@]3(O)C[C@H](OC(=O)[C@H](O)[C@@H](NC(=O)c4ccccc4)c4ccccc4)C(C)=C1C3(C)C)[C@]1(OC(C)=O)CO[C@@H]1C[C@@H]2O [Paclitaxel]
aqueous solubility: about 12 mg/liter
